Experimental findings from PMC5725448 are described below.

Sequences of proteins named here, by UniProt entry; tags and fusion partners are left off.
UniProt Q92973: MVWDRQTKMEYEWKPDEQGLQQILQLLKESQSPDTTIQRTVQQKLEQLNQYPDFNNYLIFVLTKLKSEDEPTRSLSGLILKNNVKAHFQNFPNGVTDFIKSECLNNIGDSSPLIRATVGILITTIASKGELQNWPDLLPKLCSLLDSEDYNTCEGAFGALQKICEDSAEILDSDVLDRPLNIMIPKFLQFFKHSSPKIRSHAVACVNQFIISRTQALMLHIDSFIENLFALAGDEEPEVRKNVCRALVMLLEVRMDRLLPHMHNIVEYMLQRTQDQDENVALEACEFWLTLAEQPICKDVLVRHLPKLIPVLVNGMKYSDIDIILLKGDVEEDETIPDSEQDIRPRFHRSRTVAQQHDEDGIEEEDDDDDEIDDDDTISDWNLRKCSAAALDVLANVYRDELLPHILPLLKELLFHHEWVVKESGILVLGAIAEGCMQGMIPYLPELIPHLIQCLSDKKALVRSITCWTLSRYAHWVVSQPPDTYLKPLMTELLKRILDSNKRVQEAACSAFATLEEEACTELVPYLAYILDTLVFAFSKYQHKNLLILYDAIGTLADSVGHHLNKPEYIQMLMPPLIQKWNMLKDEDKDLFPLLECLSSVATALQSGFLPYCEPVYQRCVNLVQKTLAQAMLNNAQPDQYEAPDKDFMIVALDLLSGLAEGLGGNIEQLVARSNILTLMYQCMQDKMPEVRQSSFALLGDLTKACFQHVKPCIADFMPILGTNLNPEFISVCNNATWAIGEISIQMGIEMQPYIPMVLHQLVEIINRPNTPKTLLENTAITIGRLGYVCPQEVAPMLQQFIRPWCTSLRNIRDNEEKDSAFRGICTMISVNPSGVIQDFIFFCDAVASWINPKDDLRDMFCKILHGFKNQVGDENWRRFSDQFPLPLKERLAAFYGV
UniProt P42338: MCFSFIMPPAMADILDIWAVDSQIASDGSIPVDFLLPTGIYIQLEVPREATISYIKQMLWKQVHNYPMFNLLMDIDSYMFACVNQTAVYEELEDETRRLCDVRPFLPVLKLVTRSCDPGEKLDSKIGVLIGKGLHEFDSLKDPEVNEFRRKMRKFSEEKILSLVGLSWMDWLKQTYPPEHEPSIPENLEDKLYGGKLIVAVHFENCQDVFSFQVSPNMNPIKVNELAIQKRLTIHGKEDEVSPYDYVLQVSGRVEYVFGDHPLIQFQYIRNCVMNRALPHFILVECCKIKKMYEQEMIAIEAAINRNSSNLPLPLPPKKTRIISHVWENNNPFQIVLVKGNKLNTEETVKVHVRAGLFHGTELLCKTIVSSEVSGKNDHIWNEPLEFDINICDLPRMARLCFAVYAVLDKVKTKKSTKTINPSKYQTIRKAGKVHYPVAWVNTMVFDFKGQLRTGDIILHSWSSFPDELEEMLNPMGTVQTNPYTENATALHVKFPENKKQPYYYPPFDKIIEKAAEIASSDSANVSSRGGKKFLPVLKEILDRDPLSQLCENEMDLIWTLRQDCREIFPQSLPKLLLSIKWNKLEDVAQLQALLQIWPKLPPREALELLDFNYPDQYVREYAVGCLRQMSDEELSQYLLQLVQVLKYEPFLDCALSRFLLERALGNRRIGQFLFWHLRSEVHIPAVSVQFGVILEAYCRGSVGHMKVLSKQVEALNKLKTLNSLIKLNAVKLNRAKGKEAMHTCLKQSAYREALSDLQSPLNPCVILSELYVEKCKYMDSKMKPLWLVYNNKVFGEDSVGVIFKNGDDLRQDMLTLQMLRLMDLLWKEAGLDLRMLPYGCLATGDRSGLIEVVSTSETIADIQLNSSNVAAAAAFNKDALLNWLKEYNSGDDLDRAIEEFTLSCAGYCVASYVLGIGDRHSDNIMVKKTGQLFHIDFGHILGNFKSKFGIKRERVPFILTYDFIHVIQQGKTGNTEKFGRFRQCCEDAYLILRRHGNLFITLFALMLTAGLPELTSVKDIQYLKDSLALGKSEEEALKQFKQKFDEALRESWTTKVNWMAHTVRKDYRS

Assay [1] has as its target T1, RanBP6-V5 (doxycycline-inducible V5-tagged RanBP6) (human) (UniProt O60518).
T1 sequence: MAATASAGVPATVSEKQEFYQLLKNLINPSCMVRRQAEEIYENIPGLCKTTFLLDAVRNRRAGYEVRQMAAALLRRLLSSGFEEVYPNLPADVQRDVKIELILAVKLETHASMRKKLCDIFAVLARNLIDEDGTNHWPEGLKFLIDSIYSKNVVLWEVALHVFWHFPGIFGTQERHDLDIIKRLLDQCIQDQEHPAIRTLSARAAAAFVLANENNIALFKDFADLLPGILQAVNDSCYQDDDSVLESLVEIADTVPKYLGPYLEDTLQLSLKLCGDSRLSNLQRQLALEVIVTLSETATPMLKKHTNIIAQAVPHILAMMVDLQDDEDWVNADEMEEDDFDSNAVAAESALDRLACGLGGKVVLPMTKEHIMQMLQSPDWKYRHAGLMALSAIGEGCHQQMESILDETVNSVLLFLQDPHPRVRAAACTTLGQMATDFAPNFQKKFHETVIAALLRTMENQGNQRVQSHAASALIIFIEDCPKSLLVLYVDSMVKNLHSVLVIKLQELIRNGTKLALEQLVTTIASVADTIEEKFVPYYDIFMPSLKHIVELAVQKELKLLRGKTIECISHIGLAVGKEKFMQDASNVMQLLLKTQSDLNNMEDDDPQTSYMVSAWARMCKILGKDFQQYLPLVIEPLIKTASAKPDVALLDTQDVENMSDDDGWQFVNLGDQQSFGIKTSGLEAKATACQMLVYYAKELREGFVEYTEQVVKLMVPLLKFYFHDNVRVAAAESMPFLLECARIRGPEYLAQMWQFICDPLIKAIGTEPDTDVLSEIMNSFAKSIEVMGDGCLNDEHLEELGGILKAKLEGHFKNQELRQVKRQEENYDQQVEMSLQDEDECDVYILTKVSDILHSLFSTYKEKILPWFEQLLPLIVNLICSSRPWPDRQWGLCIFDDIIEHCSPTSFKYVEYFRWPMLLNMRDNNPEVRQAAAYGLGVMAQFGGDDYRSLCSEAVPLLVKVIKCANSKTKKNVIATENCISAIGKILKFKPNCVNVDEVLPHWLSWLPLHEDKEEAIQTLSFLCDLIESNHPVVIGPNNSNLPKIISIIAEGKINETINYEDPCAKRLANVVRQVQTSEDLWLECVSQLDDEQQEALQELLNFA
The experiment in a line: affinity purification with mass spectrometry; RanBP6-V5 purified on anti-V5 agarose affinity gel overnight from lysates of serum-starved A431 Dox-inducible RanBP6-V5 cells, eluted with V5 peptide; LC-MS/MS; four replicates; control A431 parental cells.

In assay [2] the target is epidermal growth factor receptor (EGFR) (human (endogenous in A431, HEK-293T, LN18)) (UniProt P00533). The experiment in a line: affinity purification with mass spectrometry; endogenous EGFR immunopurified with Cetuximab on magnetic protein G Dynabeads from lysates of A431 cells serum starved and stimulated with EGF (100 ng/ml) for 5 min; 2 h 30 min at 4 °C; LC-MS/MS; three replicates; control mouse IgG.

These are yes or no findings as the source states them, for the method shown. Binding seen in cells or lysates may run through a third protein. Here binding means that the protein was enriched with, or labelled near, the bait; the list need not be complete. For some assays here: Where a sequence is shown, tags or fusion partners need not be part of it.

“epidermal growth factor receptor (EGFR) (from UniProt P00533 25-1210)”: in assay [1], the binding result was “binds”.

In the case of “transportin-1 (from UniProt Q92973 1-898)”, the binding result in assay [2] is on record as “binds”.

For the molecule “exportin-1 (XPO1/CRM1) (from UniProt O14980 1-1071)”, the binding result in assay [1] and in assay [2] was “binds” throughout.

As for Sec61α1 (from UniProt P61619 1-476), the binding result in assay [1] and in assay [2] was “binds” throughout.

“importin subunit β-1 (from UniProt Q14974 1-876)”: the binding entry in assay [2] is “binds”.

Regarding “phosphatidylinositol 4,5-bisphosphate 3-kinase catalytic subunit β isoform (PIK3CB) (from UniProt P42338 1-1070) (enzyme)”, in assay [2], the binding result was “binds”.

B1: signal sequence receptor subunit α (protein, UniProt P43307 19-286)
chain: VLFRGGPRGLLAVAQDLTEDEETVEDSIIEDEDDEAEVEEDEPTDLVEDKEEEDVSGEPEASPSADTTILFVKGEDFPANNIVKFLVGFTNKGTEDFIVESLDASFRYPQDYQFYIQNFTALPLNTVVPPQRQATFEYSFIPAEPMGGRPFGLVINLNYKDLNGNVFQDAVFNQTVTVIEREDGLDGETIFMYMFLAGLGLLVIVGLHQLLESRKRKRPIQKVEMGTSSQNDVDMSWIPQETLNQINKASPRRLPRKRAQKRSVGSDE
Consider B1, for which the binding result in assay [1] and in assay [2] was “binds” in each case.

B2: transportin-2 (protein, UniProt O14787 1-897)
chain: MDWQPDEQGLQQVLQLLKDSQSPNTATQRIVQDKLKQLNQFPDFNNYLIFVLTRLKSEDEPTRSLSGLILKNNVKAHYQSFPPPVADFIKQECLNNIGDASSLIRATIGILITTIASKGELQMWPELLPQLCNLLNSEDYNTCEGAFGALQKICEDSSELLDSDALNRPLNIMIPKFLQFFKHCSPKIRSHAIACVNQFIMDRAQALMDNIDTFIEHLFALAVDDDPEVRKNVCRALVMLLEVRIDRLIPHMHSIIQYMLQRTQDHDENVALEACEFWLTLAEQPICKEVLASHLVQLIPILVNGMKYSEIDIILLKGDVEEDEAVPDSEQDIKPRFHKSRTVTLPHEAERPDGSEDAEDDDDDDALSDWNLRKCSAAALDVLANVFREELLPHLLPLLKGLLFHPEWVVKESGILVLGAIAEGCMQGMVPYLPELIPHLIQCLSDKKALVRSIACWTLSRYAHWVVSQPPDMHLKPLMTELLKRILDGNKRVQEAACSAFATLEEEACTELVPYLSYILDTLVFAFGKYQHKNLLILYDAIGTLADSVGHHLNQPEYIQKLMPPLIQKWNELKDEDKDLFPLLECLSSVATALQSGFLPYCEPVYQRCVTLVQKTLAQAMMYTQHPEQYEAPDKDFMIVALDLLSGLAEGLGGHVEQLVARSNIMTLLFQCMQDSMPEVRQSSFALLGDLTKACFIHVKPCIAEFMPILGTNLNPEFISVCNNATWAIGEICMQMGAEMQPYVQMVLNNLVEIINRPNTPKTLLENTGRLTSPSAIPAITIGRLGYVCPQEVAPMLQQFIRPWCTSLRNIRDNEEKDSAFRGICMMIGVNPGGVVQDFIFFCDAVASWVSPKDDLRDMFYKILHGFKDQVGEDNWQQFSEQFPPLLKERLAAFYGV
Regarding B2, the binding result in assay [2] is on record as “binds”.

B3: Ran-binding protein 6 (RanBP6), endogenous (protein, UniProt O60518 1-1105)
chain: MAATASAGVPATVSEKQEFYQLLKNLINPSCMVRRQAEEIYENIPGLCKTTFLLDAVRNRRAGYEVRQMAAALLRRLLSSGFEEVYPNLPADVQRDVKIELILAVKLETHASMRKKLCDIFAVLARNLIDEDGTNHWPEGLKFLIDSIYSKNVVLWEVALHVFWHFPGIFGTQERHDLDIIKRLLDQCIQDQEHPAIRTLSARAAAAFVLANENNIALFKDFADLLPGILQAVNDSCYQDDDSVLESLVEIADTVPKYLGPYLEDTLQLSLKLCGDSRLSNLQRQLALEVIVTLSETATPMLKKHTNIIAQAVPHILAMMVDLQDDEDWVNADEMEEDDFDSNAVAAESALDRLACGLGGKVVLPMTKEHIMQMLQSPDWKYRHAGLMALSAIGEGCHQQMESILDETVNSVLLFLQDPHPRVRAAACTTLGQMATDFAPNFQKKFHETVIAALLRTMENQGNQRVQSHAASALIIFIEDCPKSLLVLYVDSMVKNLHSVLVIKLQELIRNGTKLALEQLVTTIASVADTIEEKFVPYYDIFMPSLKHIVELAVQKELKLLRGKTIECISHIGLAVGKEKFMQDASNVMQLLLKTQSDLNNMEDDDPQTSYMVSAWARMCKILGKDFQQYLPLVIEPLIKTASAKPDVALLDTQDVENMSDDDGWQFVNLGDQQSFGIKTSGLEAKATACQMLVYYAKELREGFVEYTEQVVKLMVPLLKFYFHDNVRVAAAESMPFLLECARIRGPEYLAQMWQFICDPLIKAIGTEPDTDVLSEIMNSFAKSIEVMGDGCLNDEHLEELGGILKAKLEGHFKNQELRQVKRQEENYDQQVEMSLQDEDECDVYILTKVSDILHSLFSTYKEKILPWFEQLLPLIVNLICSSRPWPDRQWGLCIFDDIIEHCSPTSFKYVEYFRWPMLLNMRDNNPEVRQAAAYGLGVMAQFGGDDYRSLCSEAVPLLVKVIKCANSKTKKNVIATENCISAIGKILKFKPNCVNVDEVLPHWLSWLPLHEDKEEAIQTLSFLCDLIESNHPVVIGPNNSNLPKIISIIAEGKINETINYEDPCAKRLANVVRQVQTSEDLWLECVSQLDDEQQEALQELLNFA
Take B3: the binding result in assay [2] was “binds”.

B4: nuclear pore complex protein Nup93 (protein, UniProt Q8N1F7 1-819)
chain: MDTEGFGELLQQAEQLAAETEGISELPHVERNLQEIQQAGERLRSRTLTRTSQETADVKASVLLGSRGLDISHISQRLESLSAATTFEPLEPVKDTDIQGFLKNEKDNALLSAIEESRKRTFGMAEEYHRESMLVEWEQVKQRILHTLLASGEDALDFTQESEPSYISDVGPPGRSSLDNIEMAYARQIYIYNEKIVNGHLQPNLVDLCASVAELDDKSISDMWTMVKQMTDVLLTPATDALKNRSSVEVRMEFVRQALAYLEQSYKNYTLVTVFGNLHQAQLGGVPGTYQLVRSFLNIKLPAPLPGLQDGEVEGHPVWALIYYCMRCGDLLAASQVVNRAQHQLGEFKTWFQEYMNSKDRRLSPATENKLRLHYRRALRNNTDPYKRAVYCIIGRCDVTDNQSEVADKTEDYLWLKLNQVCFDDDGTSSPQDRLTLSQFQKQLLEDYGESHFTVNQQPFLYFQVLFLTAQFEAAVAFLFRMERLRCHAVHVALVLFELKLLLKSSGQSAQLLSHEPGDPPCLRRLNFVRLLMLYTRKFESTDPREALQYFYFLRDEKDSQGENMFLRCVSELVIESREFDMILGKLENDGSRKPGVIDKFTSDTKPIINKVASVAENKGLFEEAAKLYDLAKNADKVLELMNKLLSPVVPQISAPQSNKERLKNMALSIAERYRAQGISANKFVDSTFYLLLDLITFFDEYHSGHIDRAFDIIERLKLVPLNQESVEERVAAFRNFSDEIRHNLSEVLLATMNILFTQFKRLKGTSPSSSSRPQRVIEDRDSQLRSQARTLITFAGMIPYRTSGDTNARLVQMEVLMN
Consider B4, for which the binding entry in assay [1] and in assay [2] was “binds” each time.
